Values joined by “and” are separate entries in the source; they are usually repeats but may differ in a detail not shown here. Equal entries are not always repeated. In all, about 260,000 compounds went through this assay and about 1,500 (0.58%) were called active. Inconclusive results, whose numbers are uncertain, are shown with a selection of clear calls.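 How the source made its calls: active means inhibition above a set limit at one or more doses, reproduced on every date tested; inconclusive means results disagree between test dates, or hit never tested in dose response; inactive means the rest.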
target: Virion infectivity factor (Human immunodeficiency virus type 1 group M subtype B (isolate BH10)) + Virion infectivity factor (Human immunodeficiency virus type 1 group M subtype B (isolate BRU/LAI)) + Virion infectivity factor (Human immunodeficiency virus type 1 group M subtype B (isolate PCV12)) + Virion infectivity factor (Human immunodeficiency virus type 1 group M subtype B (isolate HXB2)) + DNA dC->dU-editing enzyme APOBEC-3G (Homo sapiens) (UniProt P69720+P69721+P69722+P69723+Q9HC16); assay: inhibitors of Vif binding to APOBEC3G peptide, primary screen, biochemical, TR-FRET, GST-Vif 1-94, biotin-A3G peptide, dose response retest (AID 1117319); details: hits give high values;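 further: Vif residues 1-94 fused to GST binding biotinylated APOBEC3G peptide 110-148; 0% = full assay without inhibitor and 100% = GST in place of GST-Vif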

Sequences of proteins named here, by UniProt entry; tags and fusion partners are left off. A change or cut given only in a name is not applied to a line headed by its entry.
UniProt P69720: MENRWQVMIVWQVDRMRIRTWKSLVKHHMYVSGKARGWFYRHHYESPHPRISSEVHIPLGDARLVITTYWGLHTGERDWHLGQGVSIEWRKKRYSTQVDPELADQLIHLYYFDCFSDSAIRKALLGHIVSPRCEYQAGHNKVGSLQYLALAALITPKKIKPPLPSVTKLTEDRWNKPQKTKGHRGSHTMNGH
UniProt P69721: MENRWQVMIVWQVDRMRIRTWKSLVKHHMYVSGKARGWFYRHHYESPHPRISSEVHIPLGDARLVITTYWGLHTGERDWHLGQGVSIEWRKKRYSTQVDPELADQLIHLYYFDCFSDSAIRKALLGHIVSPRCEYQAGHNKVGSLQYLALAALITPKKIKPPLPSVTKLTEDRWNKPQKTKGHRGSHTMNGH
UniProt P69722: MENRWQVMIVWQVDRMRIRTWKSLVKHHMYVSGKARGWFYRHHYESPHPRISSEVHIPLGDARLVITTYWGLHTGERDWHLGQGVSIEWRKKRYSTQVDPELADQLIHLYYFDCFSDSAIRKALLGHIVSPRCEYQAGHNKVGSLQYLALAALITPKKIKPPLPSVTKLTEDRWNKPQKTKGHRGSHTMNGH
UniProt P69723: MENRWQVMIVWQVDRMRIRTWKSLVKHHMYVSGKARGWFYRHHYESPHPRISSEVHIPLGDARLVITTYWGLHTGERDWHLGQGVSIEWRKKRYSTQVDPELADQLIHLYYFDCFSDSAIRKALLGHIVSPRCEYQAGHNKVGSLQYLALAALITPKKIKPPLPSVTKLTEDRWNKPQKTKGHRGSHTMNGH
UniProt Q9HC16: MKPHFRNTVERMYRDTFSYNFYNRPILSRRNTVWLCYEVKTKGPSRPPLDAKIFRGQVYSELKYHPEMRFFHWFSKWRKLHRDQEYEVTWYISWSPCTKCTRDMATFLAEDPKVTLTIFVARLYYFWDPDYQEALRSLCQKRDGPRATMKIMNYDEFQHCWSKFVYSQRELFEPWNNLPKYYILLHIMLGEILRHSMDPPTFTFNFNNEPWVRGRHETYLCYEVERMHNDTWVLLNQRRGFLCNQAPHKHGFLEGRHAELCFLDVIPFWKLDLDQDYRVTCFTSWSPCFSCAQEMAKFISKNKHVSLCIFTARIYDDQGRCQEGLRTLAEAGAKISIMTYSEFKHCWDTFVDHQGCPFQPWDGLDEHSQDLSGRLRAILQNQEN

| SMILES | inhibition |
| --- | --- |
| N#Cc1c(-c2ccc(F)cc2)noc1N | inconclusive: 41.6% |
| CC(=O)Nc1cccc(-c2nnc(SCC(=O)N3CCCCC3)n2C)c1 | inconclusive: 37% |
| CCN(CCCNC(=O)C1CCC(=O)N1C1CCCC1)c1cccc(C)c1 (stereo not given) | inconclusive: 29.9% |
| O=C(Nc1nc2ccccc2n1CCN1CCCC1)c1ccc(Cl)cc1 | inconclusive: 40% |
| O=C(NNC(=S)NC(=O)c1cccnc1)c1ccc(Cl)cc1 | inconclusive: 44.1% |
| O=[N+]([O-])c1cc(C(F)(F)F)cc([N+](=O)[O-])c1N1CCN(S(=O)(=O)c2ccccc2)CC1 | inconclusive: 40.3% |
| Cc1cccnc1Nc1nc(-c2ccc(O)cc2O)cs1 | inconclusive: 33.3% |
| Cc1ccsc1C1CC(=O)NC2=C1C(=O)CC(C)(C)C2 (stereo not given) | inconclusive: 14.1% |
| CCN1CCCC1CNC(=O)C1c2ccccc2C(=O)N(CCOC)C1c1ccc(F)cc1 (stereo not given) | inconclusive: 39% |
| COCCNC(=O)CN(c1ccc(C)cc1)S(=O)(=O)c1ccccc1 | inconclusive: 48.6% |
| COc1ccc(NC(=O)CC2CCCC2)cc1S(=O)(=O)N1CCCCC1 | inconclusive: 37.1% |
| COc1ccc(C(=O)n2nc(-c3ccccc3)nc2N)cc1OC | inactive: -0.61% and inactive: -0.84% |
| CCCc1nc([N+](=O)[O-])c(S(=O)(=O)c2ccccc2)n1CC(C)C | inconclusive: 37.5% |
| N#Cc1c(NC(=O)c2cnccn2)sc2c1CCCC2 | inconclusive: 48% |
| CC(NC(=O)C12CC3CC(C1)CC(n1cncn1)(C3)C2)C12CC3CC(CC(C3)C1)C2 (stereo not given) | inactive: -7.08% |
| Cn1c(=O)[nH]c(=O)c2c1nc(SCCC(=O)O)n2Cc1cccc(Br)c1 | inconclusive: 58.8% |
| O=C(C1CCCN(S(=O)(=O)Cc2ccccc2)C1)N1CCc2ccccc21 (stereo not given) | inconclusive: 40.2% |
| Cc1ccc(-c2c3c(=O)n(C)c(=O)n(C)c3cn2-c2ccccc2O)cc1 | inconclusive: 48% |
| COc1ccc(C(=O)NNC(=O)c2ccccc2[N+](=O)[O-])cc1Br | inconclusive: 58% |
| Cc1ccc(OCC(=O)NCCO)cc1C | inconclusive: 34.2% |
| CCC(=O)N1CCN(c2nc(-c3ccc(Cl)cc3)cs2)CC1 | inconclusive: 52.9% |
| Cc1[nH]nc(Nc2ccc(O)cc2)c1[N+](=O)[O-] | inconclusive: 36.2% |
| O=C(C1=NN[C@@H]2C(=O)N(c3ccccc3C(F)(F)F)C(=O)[C@H]12)c1ccc2ccccc2n1 | inconclusive: 49.2% |

| SMILES | inhibition |
| --- | --- |
| C=CCn1c(SCC(=O)c2cccs2)nc2sc(C)c(C)c2c1=O | inactive: -46.6% |
| O=S(=O)(Cc1ccccc1)N1CCc2ccccc21 | inconclusive: 52.8% |
| CCCCN(S(=O)(=O)c1ccccc1)S(=O)(=O)c1ccccc1 | inconclusive: 34.8% |
| Cc1cc(=O)oc2cc(OCC(O)CN3CCc4ccccc4C3)ccc12 (stereo not given) | inconclusive: 36.6% |
| CCN(CC)S(=O)(=O)c1ccc(N2CCCC2)c(NC(=O)CC(C)(C)C)c1 | inconclusive: 56.6% |
| CCOC(=O)C(=NC1CCS(=O)(=O)C1)NNc1cc(Cl)ccc1Cl (stereo not given) | inactive: 11.7% |
| Cc1cc(=O)[nH]c(SCCCOc2ccc3c(c2)CCC3)n1 | inactive: -0.15% |
| CCOC(=O)Cc1csc(NC(=O)CSc2nnc(-c3ccc(F)cc3)o2)n1 | inconclusive: 20% |
| CC(=O)Nc1ccc(NC(=O)c2c(C)nc3ccccn23)cc1 | inconclusive: 34% |
| C=CCSc1nnc2n(-c3ccccc3OC)c(=O)c3c4c(sc3n12)CCC4 | inconclusive: 41.5% |
| CCOC(=O)N/N=C1\CC(C)S(=O)(=O)c2ccc(Cl)cc21 (stereo not given) | inconclusive: 33.1% |
| Cc1cccc(C(=O)NNC2=C(C(=O)C(F)(F)F)CCC2)c1O | inconclusive: 33.1% |
| Cc1cccc(C)c1NC(=O)CN1C(=O)S/C(=C\c2cccn2-c2cccc(C(=O)O)c2)C1=O | inactive: 6.97% |
| Cn1c(SCC(=O)N2CCCC2)nc2cccnc21 | inconclusive: 45.5% |
| CN1CCN(CC(O)COc2ccccc2)CC1 (stereo not given) | inactive: -7.2% |
| COc1ccc2c(c1)CCc1c(C(=O)NCC(C)C)noc1-2 | inconclusive: 40.2% |
| CC(=O)NS(=O)(=O)c1ccc(NC(=O)COc2ccc(C(=O)c3ccccc3)cc2)cc1 | inconclusive: 47.2% |
| Cc1nc(SCC(=O)c2ccc(F)c(F)c2)[nH]c(=O)c1Oc1ccc(F)cc1 | inactive: -1.47% |
| Cc1c(C(=O)NNC(=S)Nc2cccc(Cl)c2)nnn1-c1ccccc1 | inconclusive: 34.2% |
| Cc1ccc(S(=O)(=O)Nc2ncnc3sc(C)c(C)c23)cc1 | inconclusive: 42.2% |
| CCCCC/C=N\NC(=O)Cc1ccc([N+](=O)[O-])cc1 | inconclusive: 34.2% |
| Cc1ccc(C)c(NC(=O)c2ccccc2NC(=O)C2CCCO2)c1 (stereo not given) | inconclusive: 46.7% |

Some values from above.
Value of Cc1ccc(S(=O)(=O)Nc2ncnc3sc(C)c(C)c23)cc1 under inhibition: inconclusive: 42.2%
Value of CCCCC/C=N\NC(=O)Cc1ccc([N+](=O)[O-])cc1 under inhibition: inconclusive: 34.2%

Reference: PubChem BioAssay AID1117319 (Southern Research Institute, 2015)
